Source: PubChem BioAssay AID686937 (Drosophila RNAi Screening Center, 2013)
Aim: 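Genes whose loss weakens secretory pathway function in fly cells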 (primary screen). Cells: Drosophila S2 cells expressing secreted horseradish peroxidase. Knock-down reagent: long dsRNA against Drosophila genes. Duration: about 5.5 days (5 days dsRNA, then 12 h reporter induction). Challenge: reporter expression induced after 5 days of dsRNA, read 12 h later; inducer not stated. Measurement: 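After 5 days of dsRNA and 12 h of reporter induction, medium peroxidase read by chemiluminescence and scored as per-plate z-score; higher values mean more reporter released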. Scale: z-score: higher = more reporter secreted into medium.
The deposit covers about 23,000 reagents; shown is a random part of those that have a named target and a result. 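Reduced-secretion tags in replicate 1 do not always agree with the z-scores; no criterion for assigning the tags was given.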 A plus sign joins genes that one reagent is predicted to hit. Not all columns of the deposit are shown. No sequences are given here. Not given: the amount of reagent.

gene knocked down	dsRNA	z-score, replicate 1
Pbp95	DRSC15448	0.24
rgr	DRSC06487	0.49
rgr	DRSC07229	0.36
Cby	DRSC14591	0.19
Mal-A7	DRSC06077	0.49
CG9400	DRSC20182	0.28
ens	DRSC08454	0.47
Nepl5	DRSC03241	0.19
CG8944	DRSC20128	0.23
CG8944	DRSC21342	0.82
CG13771	DRSC02277	0.14
CG14990	DRSC08449	-0.15
Non3	DRSC16359	0.05
ImpL1	DRSC11197	0.16
CG8312	DRSC16406	0.23
Dysb	DRSC10730	0.37
CG9555	DRSC03264	0.32
alpha-Est5	DRSC12617	0.35
Pgant7	DRSC19991	0.08
CG16972	DRSC02550	0.33
Toll-4	DRSC03458	0.45
CG14957	DRSC08416	-1.32
CG32984	DRSC21602	-0.64
CG9743	DRSC16552	0.17
jb	DRSC20531	0.47
Smg6	DRSC16029	0.58
CG40583 (retired record)	DRSC20938	0.33
lncRNA:CR32553	DRSC19229	0.11
CG5787	DRSC02895	0.39
sle + CG12592	DRSC21387	-0.1
CG32681	DRSC17646	0.15
CG1309	DRSC08302	0.33
spel1	DRSC03617	0
CG17929	DRSC15291	0.27
janA	DRSC16972	0.13
CG33695 + cana	DRSC01163	-2.2
CG33695 + cana	DRSC03503	0.46
CG10055	DRSC12503	0.13
Idgf4	DRSC18675	0.13
CG3982	DRSC10394	-2.58
Myo61F	DRSC22144	-0.77
drosha	DRSC07607	0.42
PGRP-LA	DRSC10327	0.5
PGRP-LA	DRSC10414	0.28
CG11269	DRSC04094	0.08
CG32182	DRSC09508	0.2
Cpr65Az	DRSC09882	-0.22
Cpr65Az	DRSC22057	-0.02
lush	DRSC11364	0.37
CG14315	DRSC14794	0.39
CG31516	DRSC11994	0.45
CG17048	DRSC06649	0.35
CG11807	DRSC06087	0.41
mRpS18C	DRSC16538	0.02
Madm	DRSC12129	-2.13
CG11334	DRSC14066	0.44
CG11334	DRSC14302	0.55
NPFR	DRSC12173	0.17
SIDL	DRSC16077	0.31
CG31955	DRSC00285	0.29
elav	DRSC18772	-0.27
ms(3)76Cc	DRSC11071	0.45
ms(3)76Cc	DRSC21630	-0.87
CG12589	DRSC12215	-0.12
Drice	DRSC16715	0.23
Arp1	DRSC14118	0.05
CG34266	DRSC08323	-0.16
CG13699	DRSC10048	-0.11
CG6683	DRSC10694	0.16
CG18094	DRSC02655	0.11
nec	DRSC06769	0.15
Fit2	DRSC10908	0.24
CG14500	DRSC06471	0.21
CG12983	DRSC11692	0.25
CG33286	DRSC11691	0.22
CG6495	DRSC01993	0.49
CG33702	DRSC08986	0.29
CG9922	DRSC16579	0.33
Cpr76Ba	DRSC11060	0.08
Flo1	DRSC07427	0.41
VhaAC45	DRSC07058	-0.46
CG3625	DRSC00008	0.27
CG3625	DRSC00621	-0.22
Arl2	DRSC14117	0.18
bi	DRSC18742	0.38
Vti1a	DRSC08563	0.05
CG12010	DRSC08218	0.1
Obp56e	DRSC07188	0.43
Cftr	DRSC15872	0.29
Snx27	DRSC17786	0.36
Snx27	DRSC18282	0.22
Snx27	DRSC18284	0.27
Gr39b	DRSC01848	0.43
nolo	DRSC03705	0.23
nolo	DRSC03719	0.1
nolo	DRSC03720	0.39
CG9825	DRSC04569	0.42
BOD1	DRSC15824	0.03
CG4629	DRSC00659	0.14
CG18132	DRSC00518	0.06
CG34008	DRSC13428	0.37
Acp63F	DRSC08137	0.31
CG4455	DRSC01983	0.26
CG4455	DRSC21684	-0.77
